Percent effect of library compounds

Amino acid sequences for entries named in this document (tags omitted).
UniProt P9WPC5, whole entry: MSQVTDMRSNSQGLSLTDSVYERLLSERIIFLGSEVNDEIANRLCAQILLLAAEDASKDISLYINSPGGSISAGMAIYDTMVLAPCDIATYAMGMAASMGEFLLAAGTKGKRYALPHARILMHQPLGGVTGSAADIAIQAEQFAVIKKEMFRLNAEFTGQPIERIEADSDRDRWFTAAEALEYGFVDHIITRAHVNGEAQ
UniProt P9WPC3, whole entry partner: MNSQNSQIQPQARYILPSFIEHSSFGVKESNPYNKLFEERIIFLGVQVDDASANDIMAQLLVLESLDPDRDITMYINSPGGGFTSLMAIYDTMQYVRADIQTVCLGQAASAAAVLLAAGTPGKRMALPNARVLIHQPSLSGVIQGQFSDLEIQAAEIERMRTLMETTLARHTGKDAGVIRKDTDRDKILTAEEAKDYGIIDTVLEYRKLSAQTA

Toxoplasma: 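Assay of Toxoplasma gondii numbers, read through their beta-galactosidase reporter with a colour substrate. Tested at 10 µM. Higher reads as fewer parasites (inferred from which compounds were picked for retests). About 67,000 compounds were tested under these conditions; 0.38% (about 260) showed 50% or more at least once.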
ClpP1P2: 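ClpP1P2, Mycobacterium tuberculosis (UniProt P9WPC5 and UniProt P9WPC3). Protease assay of ClpP1P2, read by the AMC dye that it sets free. Concentration: 50 µM. Direction is inferred from only a few compounds that gave an IC50; most scored high, so higher reads as stronger inhibition. Most other retested compounds had strongly negative values. Of about 69,000 compounds tested this way, about 10 (0.015%) reached 50% or more in at least one test.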
Leishmania in macrophages: 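Cell assay of Leishmania donovani living inside macrophages; the read-out is not stated. Compounds at 30 µM. Direction is inferred from retests: higher values go with stronger inhibition. Size under these conditions: about 69,000 compounds, about 1,000 of them at 50% or above in at least one test.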
T. brucei: 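Whole-parasite assay of Trypanosoma brucei over 72 hours; the read-out is not stated. Concentration: 30 µM. The record gives no direction; compounds that gave an IC50 in retests scored well above the rest, so higher reads as stronger inhibition. Values scatter widely below zero; nearly all retest evidence comes from the higher of the two concentrations used. Size under these conditions: about 64,000 compounds, about 940 of them at 50% or above in at least one test.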

Each number is a percent effect as filed.
The record does not define 0% and 100%; most values in the screen are far below 50% and negative numbers occur (in some assays of this library far below -100).
This is an unselected part of the compounds tested.
Two or more numbers in one place are separate tests of the same structure; such repeats can differ widely.
A dash means the value is not listed here; it may have been measured.

| # | structure | Toxoplasma | ClpP1P2 | Leishmania in macrophages | T. brucei |
|---|---|---|---|---|---|
| 1 | `CCCC(=O)N(CCCN1CCOCC1)c1nc2c(Cl)cccc2s1.Cl` | 17.76 | - | 27.5 and 24.31 | 55.71 |
| 2 | `COCCOc1ccnc(-c2noc([C@@H]3CCCN3CC3CC3)n2)c1` | -4.565 | -3.241 | 7.277 | -4.686 |
| 3 | `c1csc(CN2C[C@H](OCC3CC3)[C@H]3COC[C@H]32)n1` | - | -2.297 | - | - |
| 4 | `O=C(NC[C@]12COC[C@H]1CN(Cc1nccs1)C2)c1ccccc1` | - | 5.718 | - | - |
| 5 | `Cc1ccccc1Oc1ncccc1CNS(=O)(=O)N(C)C` | 15.62 | -9.497 | 27.1 | -33.96 |
| 6 | `Cc1cccc(N2CCC(NC(=O)CCCc3cccs3)CC2)n1` | -2.299 | 0.1877 | -10.2 | -41.94 |
| 7 | `Cn1cc(CCCN2CCN(Cc3cccc(O)c3)CC2)cn1` | -7.825 | 0.004989 | 7.791 | - |
| 8 | `COc1ncc(NCc2csc(-c3ccco3)n2)cc1C(N)=O` | -28.07 | -19.92 | -0.4654 | -12.44 |
| 9 | `Cc1cc(C(=O)NCc2c(C)nn(C)c2C)nc(N2CCCC2)n1` | 6.212 | -14.19 | 18 | -38.5 |
| 10 | `Cc1cc2[nH]c(=O)oc2cc1S(=O)(=O)N1C[C@@H](N(C)C)[C@H](C(C)C)C1` | 11.33 | -0.7139 | 12.7 | -25.88 |
| 11 | `CC(C)(C)c1ccc(OCC(N)=O)c(CN2C[C@H]3C[C@H](O)C[C@H]3C2)c1` | - | -2.048 | - | - |
| 12 | `CN(CCCNC(=O)C1CCc2cn[nH]c2C1)c1ccc(F)cc1` (stereo not drawn) | 0.9091 | -9.524 | -15.46 | -2.673 |
| 13 | `Cc1nn(CC(C)C)c(N(C)C)c1CNCc1ccc2c(c1)OCO2` | -9.79 | -14.25 | 32.34 | 17.15 |
| 14 | `Nc1cc(CCC2CN(Cc3ccc4c(c3)OCCO4)CCO2)ccn1` (stereo not drawn) | 7.153 | -2.121 | 4.824 and 18.74 | -6.316 |
| 15 | `Cc1cnn(C2CCCN(C(=O)CCc3c(C)noc3C)C2)c1` (stereo not drawn) | -13.21 | -3.789 | 7.437 | -7.715 |
| 16 | `Cc1nc2ccccc2nc1CN1CCCCC1Cn1cccn1` (stereo not drawn) | 2.664 | -13.21 | 9.806 | 17.53 |
| 17 | `CN(Cc1ccc(F)cc1)CC1(O)CCN(C(=O)c2ccccn2)C1` (stereo not drawn) | 2.462 | -3.201 | 17.51 and 13.27 | -4.724 |
| 18 | `[H][C@]12CCCN(S(=O)(=O)c3ccc(Cl)s3)[C@@]1([H])CN(C(=O)CC(C)C)C2` | -8.31 | - | 4.866 | -3.056 |
| 19 | `CC(C)c1ccc(CN2CCN(C(=O)c3cc(C4CC4)[nH]n3)CC2)cc1` | 21.81 | 3.786 | -1.029 | 15.1 |
| 20 | `COc1ccccc1CN1CCC2(CCC(C(=O)N(C)C)O2)CC1` (stereo not drawn) | -16.16 | 12.29 | 12.38 | 10.75 |
| 21 | `O=C(Cc1ccsc1)NCC1OCCc2cn(CC3CC3)nc21` (stereo not drawn) | -2.993 | -9.279 | 18.33 | 10.27 |
| 22 | `COc1ccc(-c2nc3c([nH]2)CCNC3)c(OC)c1OC` | -4.477 | -4.159 | 25.64 | -14.91 |
| 23 | `Cc1nc(CN(C)Cc2nc(-c3ccccc3)no2)co1` | 0.4528 | -4.844 | 1.905 | -4.45 |
| 24 | `Cn1cc(N2CC3(CCN(Cc4ccoc4)CC3)OCC2=O)cn1` | - | 1.721 | - | - |
| 25 | `[H][C@@]12CN(S(C)(=O)=O)C[C@]1(C(=O)NC)CCC21CCN(C(=O)NC)CC1` | 25.47 | - | -2.252 | -47.45 |
| 26 | `Cc1nc(O)cc(CN2CC=C(c3cnn(C(C)(C)C)c3)CC2)n1` | 3.158 | 12.13 | 34.08 | -28.23 |
| 27 | `CN(Cc1ccco1)C(=O)CN1CCN(C)c2ccccc2C1` | -9.224 | 9.828 | 15.48 | -20.99 |
| 28 | `OC1CCN(c2ccccc2NCc2nc(-c3cccs3)no2)CC1` | -1.937 | 5.431 | 44.35 | 1.662 |
| 29 | `Cn1nccc1C(=O)N1CCN(C(=O)C2CCC2)[C@@H]2CS(=O)(=O)C[C@@H]21` | - | -0.4019 | - | - |
| 30 | `c1ncc2c(n1)CN(Cc1nc(-c3ccc4c(c3)OCO4)no1)CC2` | 6.55 | -20.27 | 13 | - |
| 31 | `Cc1nc(C)n(CC2CCCCN2CCCS(C)(=O)=O)n1` (stereo not drawn) | -8.092 | 4.56 | 25.79 | -22.79 |
| 32 | `Cc1cc(C(=O)NCc2cc(C)oc2C)no1` | 7.266 | -12.71 | -17.51 | -30.84 |
| 33 | `CN(C)CCn1c([C@H]2CCCO2)cc2cccnc21` | -1.022 | -2.494 | 16.6 | 1.858 |
| 34 | `Cc1ncc2c(n1)CN(CCOCC(F)(F)F)CC2` | - | -20.56 | 17.11 | -11.91 |
| 35 | `Cc1c(CC(C#N)C(=O)Nc2cccc(O)c2)cnn1C` (stereo not drawn) | 7.308 | 5.252 | -22.11 | -0.59 |
| 36 | `CCN(CC)Cc1cn2c(n1)CN(Cc1c(C)noc1C)CC2` | - | -7.802 | - | - |
| 37 | `CCc1nc(CN2CCOC(CNc3cccnn3)C2)cs1` (stereo not drawn) | 13.57 | -27.61 | 8.379 | -0.3167 |
| 38 | `Cc1c(C(=O)N2CCC2(C)C)nnn1-c1cccc2cccnc12` | 7.771 | -2.614 | 13.61 | -31.13 |
| 39 | `O=C(N[C@H]1CN(Cc2ccsc2)[C@@H]2CCCO[C@H]12)C1CC1` | - | 6.385 | - | - |
| 40 | `[H][C@]12CC[C@]([H])(CN(Cc3cccc(-n4cccn4)c3)C1)N(CCC)C2` | 7.534 | - | 2.179 | -20.46 |
| 41 | `CC(C)c1nccn1C(C)C(=O)N1CCN(c2cnccn2)CC1` (stereo not drawn) | -4.883 | -6.217 | 17.91 | -60.53 |
| 42 | `CN(Cc1ccncc1)C1COC2(CCN(Cc3ccccn3)CC2)C1.O=C(O)C(F)(F)F.O=C(O)C(F)(F)F.O=C(O)C(F)(F)F.O=C(O)C(F)(F)F` (stereo not drawn) | 4.221 | - | 12.23 | 36.9 |
| 43 | `COc1cccc(-c2noc(C3CCN(Cc4ccccc4F)C3)n2)c1` (stereo not drawn) | - | 15.89 | - | - |
| 44 | `CSCc1cccc(S(=O)(=O)N2CCSCC2)c1` | -3.467 | -11.4 | -16.07 | 8.375 |
| 45 | `O=C(CCN1CCOC(CNc2cccnn2)C1)NC1CCCCC1` (stereo not drawn) | 1.152 | -8.037 | -21.34 | - |
| 46 | `CNC(=O)c1cc(C)ccc1NCc1cn2cc(C)ccc2n1` | -1.234 | -165.2 | -4.075 | -6.059 |
| 47 | `O=C(O)C(F)(F)F.O=C(O)C(F)(F)F.O=C(O)C(F)(F)F.[H][C@@]12CO[C@@H](CN3CCN(C)CC3)[C@]1([H])CCN(Cc1ccc(C)cc1)C2` | 22.87 | - | 23.01 | -46.84 |

Source: ChEMBL document CHEMBL3988442, “University of Dundee, Small-Polar-MMV Screening Library” (2021).